Values quoted from earlier work, collected in patent US5693608A, “Method of administering a biologically active substance” (Bechgaard International Research and Development A/S, priority 1990, dated 1997).

Conditions: rats, cited from earlier work

Q: Which “time to plasma peak concentration” value (nasal gel (carbopol in PEG 400)) does the source give for `COC(=O)C1=C(C)NC(C)=C(C(=O)OC)C1c1ccccc1[N+](=O)[O-]` [nifedipine] here?
A: > 30 min

Q: What about the “bioavailability (in words)” value (nasal gel versus peroral) of the same compound?
A: higher bioavailability of nifedipine than after peroral administration
